# Test results taken from article PMC5996148.
# Several values for one entry are separate records, joined by “and”; a condition that tells them apart may be missing. Equal entries are not always repeated. The list shows a part of the results.
# Key:
# Experiment in all cases: protein microarray (ProtoArray v5.0), streptavidin-Alexa Fluor 647
# Conditions in all cases: 3'-biotin; 20 mM Tris (pH 7.5), 5 mM MgCl2, 100 mM KCl, 0.1% Tween-20, A/T-rich and random oligonucleotide blockers; temperature not stated; high values mean tight binding
# [1] = test system: C11orf74 (human)
# [2] = test system: C12orf10 (human)
# [3] = test system: C12orf41 (human)
# [4] = test system: C12orf48 (human)
# [5] = test system: C14orf100 (human)
# [6] = test system: C14orf119 (human)
# [7] = test system: C14orf122 (human)
# [8] = test system: C14orf130 (human)
# [9] = test system: C14orf131 (human)
# [10] = test system: C14orf159 (human)
sequence,measurement,setting,value
GGTGACAGGGGTATGGGGAGGGG [G4-2 biotinylated (Ct1)],binding signal,[1],-0.396 z-score
same,binding signal,[2],-0.374 z-score
same,binding signal,[3],-0.387 z-score
same,binding signal,[4],-0.402 z-score
same,binding signal,[5],-0.363 z-score
same,binding signal,[6],-0.41 z-score
same,binding signal,[7],-0.382 z-score
same,binding signal,[8],-0.392 z-score
same,binding signal,[9],-0.4 z-score and -0.369 z-score
same,binding signal,[10],-0.371 z-score
